Measured values: PubChem BioAssay AID1347076 (National Center for Advancing Translational Sciences (NCATS), 2019)
About 13,000 (3.2%) of roughly 400,000 compounds were called active. Inconclusive means that the source gave no clear call. Such entries were picked first, then a sample of the others. The call rests on the fitted dose curve; in most records, active means well fitted cell-killing curve with a large enough effect; inconclusive means small, poorly fitted or top-dose-only effect, or effect the other way; inactive means flat fitted curve, though single readings scatter. Potencies beside an inconclusive call are fits to weak or partial responses and may not hold up.

Test: qHTS assay for MDR1-selective chemotherapeutics: Primary screen using the drug-selected MDR subline cells KB-V1; further: nearly all actives have a fitted effect of over 60% in size
Conditions: KB-V1 MDR cells viability, CellTiter-Glo, 72 h; series mostly up to 46.1 µM
Method in brief: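 Following 72 h at 37 degrees C with compound, KB-V1 cell viability was read by CellTiter-Glo luminescence, medium being phenol-red-free DMEM plus 10% FBS; concentration-response parameters came from normalized, curve-fitted qHTS data.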
Potency means the concentration at half of the fitted maximal effect.

| SMILES | Potency |
| --- | --- |
| Cc1ccc(Cl)cc1N1CCN(C(=O)Cn2ccc3ccccc3c2=O)CC1 | inconclusive: 18.4 µM [cytotoxic, partial curve] |
| O=C(CSc1ncc(C(F)(F)F)cc1Cl)N1CCN(S(=O)(=O)c2ccc3ccccc3c2)CC1 | active: 5.8 µM |
| COc1cccc(-c2cnc3c(NC=O)cc(-c4cccc(NC(C)=O)c4)cn23)c1 | inconclusive: 29.1 µM [cytotoxic, single point] |
| CC(=O)c1ccc(N(C(=O)Cn2nnc3ccccc32)C(C(=O)NC2CCCCC2)c2cn(C)nc2C)cc1 (centres undefined) | inconclusive: 18.4 µM [rising, single point] |
| Cc1c(CC(=O)N[C@@H](C)C(=O)O)c(=O)oc2cc3occ(-c4ccccc4)c3cc12 | inconclusive: 23.1 µM [rising, partial curve, poor fit] |
| COc1ccc(-c2ocnc2C(=O)N2CCN(C(c3ccccc3)c3ccccc3)CC2)cc1 | inconclusive: 29.1 µM [cytotoxic, single point] |
| NC(=S)Nc1cccc(F)c1 | inactive |
| CCN(CC)CCN1C(=O)C(=O)/C(=C(/O)c2ccc(OC)cc2)C1c1ccco1 (centres undefined) | inconclusive: 14.6 µM [rising, single point] |
| O=C(C[n+]1ccccc1)NNc1ccccc1 | inactive |
| Cc1cc(C(=O)N2CCCC(N3CCN(c4cccc(Cl)c4)CC3)C2)nc(C)n1 (centres undefined) | inconclusive: 14.6 µM [cytotoxic, single point] |
| Fc1ccc2nc(Nc3nc4c(F)cc(F)cc4s3)sc2c1 | inconclusive: 16.4 µM [cytotoxic, single point] |
| NC(=O)c1cccc(-c2coc3c(C(=O)NCCc4ccccc4)cccc23)c1 | inconclusive: 29.1 µM [cytotoxic, single point] |
| COc1ccc(N(S(=O)(=O)c2ccccc2)S(=O)(=O)c2ccccc2)c(N)c1 | inconclusive: 20.6 µM [cytotoxic, single point] |
| C/C(=N\NC(=O)CSCc1ccccc1Cl)c1cccc(NC(=O)c2ccccc2)c1 | inconclusive: 29.1 µM [cytotoxic, single point] |
| COc1ccc2nc(N3C(=O)CC(Cc4ccc(C)cc4)C3=O)sc2c1 (centres undefined) | inconclusive: 10.3 µM [rising, partial curve, poor fit] |
| Cn1cccc1/C=N/N1CCN(Cc2cccc3ccccc23)CC1 | inactive |
| NC(=O)CSc1ccc2nnc(-c3ccncc3)n2n1 | inactive |
| O=C(O)c1cccc(S(=O)(=O)N2CCN(c3ccccn3)CC2)c1 | inconclusive: 18.4 µM [rising, partial curve, poor fit] |
| COc1cc(C(=O)Oc2cccc(C=O)c2)cc(OC)c1OC | inactive |
| CCC(C)NC(=O)c1cc2c(=O)n(CC)c3ccccc3c2s1 (centres undefined) | inconclusive: 5.17 µM [cytotoxic, partial curve] |
| Cc1ccc(C)c(Cn2c3ccccc3c3cnn(CC(=O)NCCC4=CCCCC4)c(=O)c32)c1 | inactive |
| Cc1cccc(NC(=O)C2Cc3ccccc3CN2C(=O)OCc2ccccc2)c1C (centres undefined) | inconclusive: 0.411 µM [cytotoxic, full curve, poor fit] |
| Cc1ncc(CN2CCC(C(=O)Nc3cccc(-c4cscn4)c3)CC2)cn1 | inconclusive: 18.4 µM [cytotoxic, single point] |

| SMILES | Potency |
| --- | --- |
| CCOCCC(=O)Nc1ccc2c(c1)c(=O)n(C)n2C/C=C/c1ccccc1 | inconclusive: 18.4 µM [cytotoxic, single point] |
| CCN(Cc1cc(=O)n2ccsc2n1)c1cccc2ccccc12 | inactive |
| N#CCC(=O)N/N=C/c1ccc(Sc2nc3ccccc3s2)o1 | inconclusive: 29.1 µM [cytotoxic, single point] |
| CCS(=O)(=O)N1CCN(c2ncnc3sc(C)c(C)c23)CC1 | inconclusive: 29.1 µM [cytotoxic, single point] |
| CCCS(=O)(=O)N1CCCC(C(=O)Oc2ccc(OC)cc2)C1 (centres undefined) | inactive |
| Brc1ccccc1-c1cnco1 | inconclusive: 8.2 µM [rising, partial curve] |
| Cc1ccc(Cn2nnnc2CN2CCC(O)(c3cccnc3)CC2)cc1 | inconclusive: 29.1 µM [cytotoxic, single point] |
| c1ccc(CN2CCC(N3CCN(Cc4ccc5c(c4)OCO5)CC3)CC2)cc1 | inconclusive: 8.2 µM [cytotoxic, partial curve, poor fit] |
| COc1cccc(Cn2c(=S)[nH]c3ccc(N4CCOCC4)cc3c2=O)c1 | active: 3.66 µM |
| COc1cc(/C=N/NC(=O)c2cncc(Br)c2)cc([N+](=O)[O-])c1O | inconclusive: 29.1 µM [cytotoxic, single point] |
| COC(C[C@H]1O[C@@H]1C(=O)COCc1ccccc1)OC | inactive |
| O=C(CNC(=O)c1ccccc1)N/N=C/c1cccs1 | inconclusive: 8.2 µM [rising, partial curve, poor fit] |
| CCc1cccc(OCC(=O)Nc2ccc(S(=O)(=O)Nc3cc(C)nc(C)n3)cc2)c1 | inactive |
| Cc1ccc(NC(=O)c2ccc(-c3nn(C)c(=O)c4ccccc34)cc2)cc1 | active: 20.6 µM |
| Cc1nc2sc(C(c3ccccc3)N3CCC(O)CC3)c(O)n2n1 (centres undefined) | inconclusive: 11.6 µM [rising, partial curve, poor fit] |
| O=c1[nH]n(CC2COC3(CCCCC3)O2)c(=O)c2ccccc12 (centres undefined) | inconclusive: 2.91 µM [cytotoxic, partial curve] |
| O=C(NCc1cccs1)C1C(=O)Nc2ccccc2C(=O)N1Cc1ccccc1 (centres undefined) | inactive |
| Cc1c(NC(=O)c2ccc(S(=O)(=O)N(C)C)cc2)cccc1-n1cnnn1 | inconclusive: 29.1 µM [rising, single point] |
| C(=NN=C1c2ccccc2-c2ccccc21)c1ccc2c(c1)OCO2 | inconclusive: 14.6 µM [cytotoxic, single point] |
| Cn1nc(N)c2ncc(-c3ccc(Cl)cc3)nc21 | active: 7.31 µM |
| COc1cccc(C(=O)COc2cccc(NC(=O)c3ccco3)c2)c1 | inconclusive: 13 µM [cytotoxic, partial curve, poor fit] |
| CCOC(=O)C(Cc1ccccc1)C(=O)Nc1ccc(NC(=O)C(Cc2ccccc2)C(=O)OCC)cc1 (centres undefined) | inconclusive: 29.1 µM [rising, single point] |
| O=C(N/N=C/c1ccc(-c2cccc([N+](=O)[O-])c2)o1)c1ccc([N+](=O)[O-])cc1 | inconclusive: 14.6 µM [cytotoxic, partial curve, poor fit] |

| SMILES | Potency |
| --- | --- |
| CC1=C(OC(=O)c2ccc(Br)cc2)C(C)(C)C(c2ccccc2)OC1=O (centres undefined) | inconclusive: 32.6 µM [rising, single point] |
| CCCCOc1ccc(C(=O)Nc2nnc3n2CCS3)cc1 | inconclusive: 29.1 µM [cytotoxic, single point] |
| CCOCCCNC(=O)C1CCN(c2nn3cc(-c4ccc(F)cc4)nc3s2)CC1 | inconclusive: 2.59 µM [cytotoxic, full curve] |
| COc1cccc(CN(C)S(=O)(=O)c2ccccc2Br)c1 | inactive |
| CCOC(=O)N1CCC(NC(=O)c2c(C)nn(-c3ccc(C)cc3)c2-n2cccc2)CC1 | active: 7.31 µM |
| COc1ccc(S(=O)(=O)N2CCCOC2CNC(=O)C(=O)NCCO)cc1 (centres undefined) | inactive |
| COc1ccc(C(=O)SC2=NCCS2)cc1OC | inactive |
| Cc1noc(C)c1C(=O)Nc1ccc(N(C)C)cc1 | inconclusive: 25.9 µM [rising, single point] |
| CCC(=O)N1CCc2cc(S(=O)(=O)NCCC(=O)NCc3ccccc3OC)ccc21 | inconclusive: 29.1 µM [rising, single point] |
| Cn1c(=O)c(=O)n(C)c2cc(N3CCOCC3)c(NS(=O)(=O)c3ccc(Cl)cc3)cc21 | inactive |
| COC(=O)c1scc(-c2ccc(C)cc2)c1S(=O)(=O)Nc1cc(Cl)ccc1C | inactive |
| Cc1nn(Cc2ccc(F)cc2)c(C)c1NC(=O)c1cc(CC(C)C)on1 | inconclusive: 14.6 µM [cytotoxic, partial curve, poor fit] |
| O=C(CCN1C(=O)C2C3C=CC(C3)C2C1=O)N1CCN(c2cccc(Cl)c2)CC1 (centres undefined) | inconclusive: 23.1 µM [cytotoxic, partial curve, poor fit] |
| COc1ccc(CSc2nc(CSC)cc(N3CCOCC3)n2)cc1 | inconclusive: 9.2 µM [cytotoxic, partial curve, poor fit] |
| COc1ccc(C(=O)NNc2ccccc2)cc1 | inactive |
| Cc1ccc(C(=O)N/N=C2\CCc3ccccc32)c(C)c1 | active: 23.1 µM |
| Cc1ccc(C(=O)N2CC(C)CC(C)C2)cc1NC1=NC2CS(=O)(=O)CC2S1 (centres undefined) | inactive |
| CCOC(=O)c1cccc(N/C=C/C(=O)c2ccc(OC)c(OC)c2)c1 | inconclusive: 20.6 µM [cytotoxic, single point] |
| CCOC(=O)c1[nH]c2c(c1Cc1ccccc1)C(=O)CC(c1ccc(Cl)cc1)C2 (centres undefined) | inconclusive: 29.1 µM [cytotoxic, single point] |
| Cc1cc(C)c2c(N)c(C(=O)c3ccc(Cl)cc3)sc2n1 | inconclusive: 6.51 µM [cytotoxic, full curve, poor fit] |
| CCc1ccc(S(=O)(=O)c2cn(CC(=O)Nc3ccc(C)cc3)c3ccccc3c2=O)cc1 | inconclusive: 23.1 µM [rising, partial curve, poor fit] |
| O=c1[nH]c2ccsc2c(=O)n1-c1ccc(F)c(Cl)c1 | inconclusive: 23.1 µM [cytotoxic, single point] |
| CCS(=O)(=O)N1Cc2ccccc2CC1C(=O)Nc1nnc(SCc2ccc(C#N)cc2)s1 (centres undefined) | inconclusive: 2.31 µM [cytotoxic, partial curve, poor fit] |

3 entries from above, as tab-separated lines.
SMILES	Potency
Cc1noc(C)c1C(=O)Nc1ccc(N(C)C)cc1	inconclusive: 25.9 µM [rising, single point]
CCC(=O)N1CCc2cc(S(=O)(=O)NCCC(=O)NCc3ccccc3OC)ccc21	inconclusive: 29.1 µM [rising, single point]
Cn1c(=O)c(=O)n(C)c2cc(N3CCOCC3)c(NS(=O)(=O)c3ccc(Cl)cc3)cc21	inactive
